The series has as its system DIO C57BL/6 male mice. The format is in vivo, mouse. To be noted: no difference between the two groups. The protocol:
A dedicated study was conducted under contract at the University of Buckingham Institute of Translational Medicine (Pr. M A Cawthorne, Pr. P Trayhurn, Dr. C. Stocker) to assess the energetic and metabolic responses to the APT-110 miR-22-3p inhibitor treatment in adult Diet-Inducted-Obese (DIO) C57BL/6 male mice over the course of 3 months. Twenty-four DIO male C57BL/6 mice, who started on 60% high fat diet at the age of 7 weeks, were purchased at 15 weeks of age from the Jackson Laboratory, USA. The mice remained on a 60% high fat diet (Research Diet D12492) throughout the experiment. […]
For oral glucose tolerance test, food was removed six hours prior to the start of the glucose tolerance test (09h00) and animals were placed in clean cages. […] Plasma nonesterified Fatty Acids (NEFA, Crystal Wako Chemicals Gmbh, Neuss, Germany, Cat 999-75406), leptin (Crystal Chem. Inc., Cat LEP90030) and adiponectin (Alpco Diagnostics, Salem, New Hampshire, Cat 47-ADPMS-E01) were measured as per the manufacturers' recommendations. Body fat and lean content was measured by Nuclear Magnetic Resonance (NMR). […] Dedicated software was used to quantify amounts of adipose and fat. […]
To measure physical activity, mice were kept in their original cages of 2 mice per cage. […] Recordings were analyzed by eye and the number of times a line was broken by a mouse in each 10-minute segment was scored. […]

Consider “5′-5mCpsTpsTps2′OMeCpsTpsTps5mCpsApsAps2′OMeCpsTpsGpsGps5mCpsApsGps5mCpsT-3′ [APT-110]”, for which the “night time physical activity” value amounted to 54±8 line breaks per cage. Besides, the total food consumption (12 weeks) is 229±6 grams per cage.

For the origin of these results see patent US12286625B2, “Inhibition of mir-22 miRNA by APT-110” (AptamiR Therapeutics, Inc., priority 2016, dated 2025).
